Data taken from ChEMBL document CHEMBL3988442, “University of Dundee, Small-Polar-MMV Screening Library” (2021).

By UniProt entry, the sequences of proteins in these tests, tags left out.
UniProt E9BF75, entry or part of it: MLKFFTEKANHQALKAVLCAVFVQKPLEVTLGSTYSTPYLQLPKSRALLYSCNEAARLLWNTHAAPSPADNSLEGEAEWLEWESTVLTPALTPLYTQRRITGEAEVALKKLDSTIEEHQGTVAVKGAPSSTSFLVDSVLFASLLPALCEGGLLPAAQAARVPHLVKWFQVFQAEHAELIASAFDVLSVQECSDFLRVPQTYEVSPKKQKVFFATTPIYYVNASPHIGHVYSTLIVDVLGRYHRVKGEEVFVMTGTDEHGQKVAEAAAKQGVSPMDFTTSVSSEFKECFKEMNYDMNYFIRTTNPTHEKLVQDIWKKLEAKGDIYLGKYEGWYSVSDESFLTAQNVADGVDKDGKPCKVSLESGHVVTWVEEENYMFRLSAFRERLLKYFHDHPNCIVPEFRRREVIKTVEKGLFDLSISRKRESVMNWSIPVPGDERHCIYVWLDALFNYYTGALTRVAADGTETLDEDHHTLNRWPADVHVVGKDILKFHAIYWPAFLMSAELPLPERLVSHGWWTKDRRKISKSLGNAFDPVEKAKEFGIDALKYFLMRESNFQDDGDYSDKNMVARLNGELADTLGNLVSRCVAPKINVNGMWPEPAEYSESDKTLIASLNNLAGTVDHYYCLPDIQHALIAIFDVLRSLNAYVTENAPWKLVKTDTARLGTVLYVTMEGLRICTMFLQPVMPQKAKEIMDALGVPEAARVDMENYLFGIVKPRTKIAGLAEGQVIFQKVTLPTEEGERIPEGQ

All values are in %. How 0% and 100% were set is not recorded. Most values in the screen are low, and negative values occur. The compounds are a random part of those screened.

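Methionyl-tRNA synthetase (putative), Leishmania donovani (UniProt E9BF75). Primary screen of methionyl-tRNA synthetase; the read-out is not stated. The test concentration is not given. The values are filed as inhibition. About 68,000 compounds were tested under these conditions; 0.035% (about 24) showed 50% or more at least once.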

| SMILES | Inhibition |
|---|---|
| `CCc1nc(N)nc(NCc2cnn3cccnc23)c1C` | 12.1 |
| `CC(C)C(=O)N1CC[C@H]2N(C)CC[C@@]2(C(=O)Nc2cccnc2)CC1` | 10.39 |
| `Cc1cn2c(n1)CCC(NC(=O)CCn1ccnn1)C2` (stereo not drawn) | 11.81 |
| `O=C(CCOc1cccc(F)c1)N1CCCC(n2cncn2)C1` (stereo not drawn) | 13.89 |
| `Cc1ccc(CNC(=O)CN2CCCCC2Cn2cncn2)s1` (stereo not drawn) | 15.32 |
| `COc1ccc(CN2C[C@@H](OCc3csc(C)n3)[C@H]3COC[C@H]32)cc1` | 10.5 |
| `COC[C@@H]1CC[C@H]2[C@H](CCN2S(=O)(=O)c2cccc(C)c2)O1` | 6.438 |
| `CCc1nc(-c2ccc(NC(=O)N3CCOCC3)cc2)no1` | 19.24 |
| `CN(Cc1nnc2ccccn12)C(=O)NC1CCCCC1` | 14.04 |
| `CNc1ncc(C(=O)N2CCC3(CC2)Nc2ccccc2NC3=O)cn1` | 17.39 |
| `Cc1nc(C(C)NCc2cc(O)c3cccc(F)c3n2)cs1` (stereo not drawn) | 8.01 |
| `CC(C)Cc1noc(CN2CCN(C(=O)c3cccs3)CC2)n1` | 11.24 |
| `Cc1cnc2c(c1NCc1cccs1)c(=O)n(C)c(=O)n2C` | 14.66 |
| `CN(Cc1noc2c1CCCC2)C(=O)Cn1cnc2ccccc2c1=O` | 12.81 |
| `O=C(NC1CCS(=O)(=O)c2ccccc21)c1sccc1C1CC1` (stereo not drawn) | 9.524 |
| `COc1ccccc1OC1CCN(C(=O)c2cnc(C)s2)CC1` | 19.15 |
| `Cn1c(=O)c2cc(C(=O)NCCOc3ccccc3)ccc2n(C)c1=O` | 7.297 |
| `c1ccc2c(N3CCCC3Cn3cccn3)ncnc2c1` (stereo not drawn) | 15.56 |
| `O=C1COc2ccc(C(=O)NS(=O)(=O)c3ccccc3F)cc2N1` | 3.429 |
| `CCCc1n[nH]c(C2CN(C(=O)c3ccnc(C4CC4)n3)CCO2)n1` (stereo not drawn) | 22.1 |
| `CCC(O)CN1CCN(C(=O)c2csc(COC)n2)CC1` (stereo not drawn) | 16.17 |
| `CC1CCN(C(=O)c2cccc(CN3CCOCC3)c2)CC1` | 11.27 |
| `CN(C)c1cccc(C(=O)N2CCCC2c2ncc3c(n2)CCNC3)c1` (stereo not drawn) | 9.647 |
| `COCC1CN(Cc2ccncc2)Cc2nnn(CC3CC3)c21` (stereo not drawn) | 6.299 |
| `CCn1cc2c(n1)C(COCC1CC1)CN(C(=O)c1ccsc1)C2` (stereo not drawn) | 15.58 |
| `CNC(=O)[C@@H]1[C@H]2CN(Cc3ccoc3)CCN2C[C@H]1c1ccccc1` | 9.589 |
| `Cc1cccnc1CNc1ccc(C(=O)N2CCc3ccccc32)cn1` | 11.41 |
| `CC(C)=CCN1CCOC(Cn2cccn2)C1` (stereo not drawn) | 10.38 |
| `Cn1nc(CO)c2c1CCN(c1ncnc3c1CCNC3)C2` | 9.254 |
| `CC(C)N1CCCC2(CCN(c3nccc(C(F)(F)F)n3)C2)C1=O` (stereo not drawn) | 13.25 |
| `CN(C)C(=O)c1ccc(OC2CCCC2)cc1` | 11.45 |
| `CC(C)CN1CCN(C(=O)c2cc(=O)c3ccccc3[nH]2)CC1` | 1.567 |
| `COCC1CN(Cc2ccc(C)o2)Cc2ncn(CC3CC3)c21` (stereo not drawn) | 5.512 |
| `COCCN1CC(C(=O)N(C)Cc2cc(-c3cccnc3)no2)CC1=O` (stereo not drawn) | 8.803 |
| `Cn1c(Cn2ccnc2)nnc1C1CCN(C(=O)c2ccccn2)CC1` | 10.43 |
| `COc1ccc([C@@H]2CN(Cc3ccncc3)C[C@H]2N(C)C)cc1` | 12.79 |
| `CCN(CC)S(=O)(=O)N1CCCC1c1nnc2n1CCCCC2` (stereo not drawn) | 18.01 |
| `COc1ccc(OCCCNCCn2cccn2)cc1` | 4.871 |
| `CC(C)(C)c1noc(CCC(=O)N2CCN(Cc3ccc(Cl)s3)CC2)n1` | 13.81 |
| `CSc1ncccc1C(=O)N(C)C(C)Cc1ccccn1` (stereo not drawn) | 8.052 |
| `O=C(CSC1CCc2ccccc2NC1=O)NCCc1ccco1` (stereo not drawn) | 6.667 |
| `CSCC(C)(O)CNC(=O)c1ccc(Br)cc1C` (stereo not drawn) | 7.063 |
| `CN(C)c1cc(C(=O)N2CCN(c3cc(C#N)ccn3)CC2)ccn1` | 14.71 |
| `CCN(CC)c1ccc(C(=O)N(C)Cc2c(C)noc2C)cn1` | 14.17 |
| `Cc1cc(-c2ccnn2C)nc(C2CCN(S(C)(=O)=O)CC2)n1` | 9.884 |
| `Cc1cc(C(=O)N2CCC(c3nccn3CCCN(C)C)CC2)no1` | 12.32 |
| `CC(C)Oc1ccccc1-c1cc(CN)ccc1F` | 4.53 |
| `CN1[C@@H](c2ccccc2)[C@@H](C(=O)NCC2CCOCC2)C[C@@]1(C)C(=O)O` | 12.1 |
| `O=C(O)c1ccc(F)c(S(=O)(=O)N2CCOc3ccccc32)c1` | 4.239 |
| `CCN(Cc1nc(COC)no1)C(=O)CCNC(=O)c1ccccc1F` | 6.529 |
| `CS(=O)(=O)N1CCC(CNC(=O)c2cnccn2)CC1` | 6.609 |
| `O=C(CCc1cc2n(n1)CCCN(C(=O)c1ccccn1)C2)NC1CC1` | 13.27 |
| `COCCCNC(=O)CN(C)C(=O)c1cc(C)ccc1O` | 11.11 |
| `Cc1ncc2c(n1)CN(Cc1nnc(-c3ccccc3)o1)CC2` | 14.92 |
| `Cc1ccccc1CC(=O)N1CCN(C2CCOC2=O)CC1` (stereo not drawn) | 15.69 |
| `O=C(N[C@@H]1CCC[C@@H](n2ccnc2)[C@@H]1O)c1ccc2c(c1)CCCC2` | 1.13 |
| `CN(Cc1cc(C2CC2)on1)C(=O)C(c1cccnc1)N1CCCC1` (stereo not drawn) | 7.357 |
| `N#Cc1c(Cl)nsc1NCc1ccnc(OCC(F)(F)F)c1` | 8.383 |
| `Cc1ccc(N2CCC(CCN3CCCC3=O)CC2)nn1` | 15.48 |
| `Cc1cnn(CC2CCCN2Cc2c(C)noc2C)c1` (stereo not drawn) | 8.947 |
| `CCN1C[C@@H]2CN(C(=O)NCc3ccccc3)CCC[C@]2(C(=O)O)C1` | 12.28 |
| `O=C(CCc1cc2n(n1)CCCN(C(=O)c1cccnc1)C2)NC1CC1` | 15.93 |
| `CCn1cc(CN2CCC(N3CCC(O)CC3)CC2)cc1C#N` | 13.61 |
| `CC(C)c1nc(C2CCCN2CC(=O)N2CCc3ccccc32)no1` (stereo not drawn) | 5.102 |
| `CO[C@@H]1CO[C@@]2(CCCN(C(=O)N3CCCC3)C2)C1` | 16.02 |

4 of the entries, repeated:

{"smiles": "CCc1nc(-c2ccc(NC(=O)N3CCOCC3)cc2)no1", "Inhibition": 19.24}
{"smiles": "Cn1nc(CO)c2c1CCN(c1ncnc3c1CCNC3)C2", "Inhibition": 9.254}
{"smiles": "CC(C)Oc1ccccc1-c1cc(CN)ccc1F", "Inhibition": 4.53}
{"smiles": "CCn1cc2c(n1)C(COCC1CC1)CN(C(=O)c1ccsc1)C2", "stereo": "stereo not drawn", "Inhibition": 15.58}